Results taken from PMC5706420.
No constants are given. Whether binding was seen depends on the method and setting. For part of these data: In cells and extracts the contact can be indirect. Some binding calls cover weakened binding; strength is not graded here. Tags and fused reporters may be left off the sequences shown. One block for each binder: values may come before it.

Key:
Conditions in all cases: remark: other sources report otherwise
[1] = target: T1, Sirt1WT-6xHis (human), Q96EB6; experiment: pull-down; 4 μg GST-fusion protein mixed with 20 μl (10-20 μg) resin-coupled Sirt1WT-6xHis in 400 μl 50 mM HEPES pH 7.2, 300 mM NaCl, 1% Triton X-100, 10% glycerol, BSA 0.2 mg/ml; 2 h at 4 °C; Western blot; both purified
T1 chain: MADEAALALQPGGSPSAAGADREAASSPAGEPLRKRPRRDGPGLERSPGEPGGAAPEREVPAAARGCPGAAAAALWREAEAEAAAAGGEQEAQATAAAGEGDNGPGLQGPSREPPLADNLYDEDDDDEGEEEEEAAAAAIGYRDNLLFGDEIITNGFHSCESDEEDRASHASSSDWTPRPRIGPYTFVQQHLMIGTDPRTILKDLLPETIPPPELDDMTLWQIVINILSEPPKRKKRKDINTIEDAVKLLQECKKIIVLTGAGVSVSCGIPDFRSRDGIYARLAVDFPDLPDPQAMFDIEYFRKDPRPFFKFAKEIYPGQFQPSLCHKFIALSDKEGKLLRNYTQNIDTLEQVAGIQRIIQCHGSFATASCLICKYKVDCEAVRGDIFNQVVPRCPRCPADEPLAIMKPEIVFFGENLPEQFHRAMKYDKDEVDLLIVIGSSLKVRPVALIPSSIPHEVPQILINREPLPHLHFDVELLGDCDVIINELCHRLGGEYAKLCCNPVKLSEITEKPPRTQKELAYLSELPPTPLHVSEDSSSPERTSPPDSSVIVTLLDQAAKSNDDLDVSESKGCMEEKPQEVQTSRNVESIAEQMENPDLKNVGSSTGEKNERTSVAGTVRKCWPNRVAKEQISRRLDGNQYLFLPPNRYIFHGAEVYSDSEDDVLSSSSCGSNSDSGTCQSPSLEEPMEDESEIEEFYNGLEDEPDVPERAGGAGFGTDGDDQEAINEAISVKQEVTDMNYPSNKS

[2] = target: T1, Sirt1WT-6xHis (human), Q96EB6; experiment: pull-down; Flag-Smad2 affinity-purified from transfected HEK293T cells (FLAG peptide elution) added to resin-coupled Sirt1-6xHis or its 6xHis fragments; 2 h at 4 °C; Western blot; both purified
[3] = target: Smad2 bait fusion in pSos (Cyto Trap two-hybrid) (human), Q15796; experiment: two-hybrid; Cyto Trap yeast two-hybrid in S. cerevisiae strain Cdc25H; Smad2 in pSos as bait, targets (Smad4 or human lung cDNA library) in pMyr; growth at 37 °C as selective condition
[4] = target: Flag-Smad2 (human), Q15796; experiment: co-IP; HEK293T cells co-transfected with HA-Sirt1 and Flag-Smad2 (wild type or mutants); SB-431542, with TSA or DMSO, then with or without TGFβ for 1 h; Flag immunoprecipitation, Western blot
[5] = target: Flag-Smad2 (human), Q15796; experiment: co-IP; Hep3B cells co-transfected with HA-Sirt1 (wild type or H363Y) and Flag-Smad2; TSA for 8 h followed by TGFβ; Smad2 immunoprecipitated from total extract, Western blot

B2: Flag-Smad2, Q15796 1-467 (protein)
chain: MSSILPFTPPVVKRLLGWKKSAGGSGGAGGGEQNGQEEKWCEKAVKSLVKKLKKTGRLDELEKAITTQNCNTKCVTIPSTCSEIWGLSTPNTIDQWDTTGLYSFSEQTRSLDGRLQVSHRKGLPHVIYCRLWRWPDLHSHHELKAIENCEYAFNLKKDEVCVNPYHYQRVETPVLPPVLVPRHTEILTELPPLDDYTHSIPENTNFPAGIEPQSNYIPETPPPGYISEDGETSDQQLNQSMDTGSPAELSPTTLSPVNHSLDLQPVTYSEPAFWCSIAYYELNQRVGETFHASQPSLTVDGFTDPSNSERFCLGLLSNVNRNATVEMTRRHIGRGVRLYYIGGEVFAECLSDSAIFVQSPNCNQRYGWHPATVCKIPPGCNLKIFNNQEFAALLAQSVNQGFEAVYQLTRMCTIRMSFVKGWGAEYRRQTVTSTPCWIELHLNGPLQWLDKVLTQMGSPSVRCSSMS
binding [2]: binds

B3: Sirt1 clone from the human lung cDNA library in pMyr, Q96EB6 1-747 (protein)
chain: MADEAALALQPGGSPSAAGADREAASSPAGEPLRKRPRRDGPGLERSPGEPGGAAPEREVPAAARGCPGAAAAALWREAEAEAAAAGGEQEAQATAAAGEGDNGPGLQGPSREPPLADNLYDEDDDDEGEEEEEAAAAAIGYRDNLLFGDEIITNGFHSCESDEEDRASHASSSDWTPRPRIGPYTFVQQHLMIGTDPRTILKDLLPETIPPPELDDMTLWQIVINILSEPPKRKKRKDINTIEDAVKLLQECKKIIVLTGAGVSVSCGIPDFRSRDGIYARLAVDFPDLPDPQAMFDIEYFRKDPRPFFKFAKEIYPGQFQPSLCHKFIALSDKEGKLLRNYTQNIDTLEQVAGIQRIIQCHGSFATASCLICKYKVDCEAVRGDIFNQVVPRCPRCPADEPLAIMKPEIVFFGENLPEQFHRAMKYDKDEVDLLIVIGSSLKVRPVALIPSSIPHEVPQILINREPLPHLHFDVELLGDCDVIINELCHRLGGEYAKLCCNPVKLSEITEKPPRTQKELAYLSELPPTPLHVSEDSSSPERTSPPDSSVIVTLLDQAAKSNDDLDVSESKGCMEEKPQEVQTSRNVESIAEQMENPDLKNVGSSTGEKNERTSVAGTVRKCWPNRVAKEQISRRLDGNQYLFLPPNRYIFHGAEVYSDSEDDVLSSSSCGSNSDSGTCQSPSLEEPMEDESEIEEFYNGLEDEPDVPERAGGAGFGTDGDDQEAINEAISVKQEVTDMNYPSNKS
binding [3]: binds

B4: HA-Sirt1, Q96EB6 1-747 (protein)
chain: MADEAALALQPGGSPSAAGADREAASSPAGEPLRKRPRRDGPGLERSPGEPGGAAPEREVPAAARGCPGAAAAALWREAEAEAAAAGGEQEAQATAAAGEGDNGPGLQGPSREPPLADNLYDEDDDDEGEEEEEAAAAAIGYRDNLLFGDEIITNGFHSCESDEEDRASHASSSDWTPRPRIGPYTFVQQHLMIGTDPRTILKDLLPETIPPPELDDMTLWQIVINILSEPPKRKKRKDINTIEDAVKLLQECKKIIVLTGAGVSVSCGIPDFRSRDGIYARLAVDFPDLPDPQAMFDIEYFRKDPRPFFKFAKEIYPGQFQPSLCHKFIALSDKEGKLLRNYTQNIDTLEQVAGIQRIIQCHGSFATASCLICKYKVDCEAVRGDIFNQVVPRCPRCPADEPLAIMKPEIVFFGENLPEQFHRAMKYDKDEVDLLIVIGSSLKVRPVALIPSSIPHEVPQILINREPLPHLHFDVELLGDCDVIINELCHRLGGEYAKLCCNPVKLSEITEKPPRTQKELAYLSELPPTPLHVSEDSSSPERTSPPDSSVIVTLLDQAAKSNDDLDVSESKGCMEEKPQEVQTSRNVESIAEQMENPDLKNVGSSTGEKNERTSVAGTVRKCWPNRVAKEQISRRLDGNQYLFLPPNRYIFHGAEVYSDSEDDVLSSSSCGSNSDSGTCQSPSLEEPMEDESEIEEFYNGLEDEPDVPERAGGAGFGTDGDDQEAINEAISVKQEVTDMNYPSNKS
binding [4]: binds
binding [5]: binds

More lines, now with the values ahead:

binding [1]: binds
B1: full length GST-Smad2, Q15796 1-467 (protein)
chain: MSSILPFTPPVVKRLLGWKKSAGGSGGAGGGEQNGQEEKWCEKAVKSLVKKLKKTGRLDELEKAITTQNCNTKCVTIPSTCSEIWGLSTPNTIDQWDTTGLYSFSEQTRSLDGRLQVSHRKGLPHVIYCRLWRWPDLHSHHELKAIENCEYAFNLKKDEVCVNPYHYQRVETPVLPPVLVPRHTEILTELPPLDDYTHSIPENTNFPAGIEPQSNYIPETPPPGYISEDGETSDQQLNQSMDTGSPAELSPTTLSPVNHSLDLQPVTYSEPAFWCSIAYYELNQRVGETFHASQPSLTVDGFTDPSNSERFCLGLLSNVNRNATVEMTRRHIGRGVRLYYIGGEVFAECLSDSAIFVQSPNCNQRYGWHPATVCKIPPGCNLKIFNNQEFAALLAQSVNQGFEAVYQLTRMCTIRMSFVKGWGAEYRRQTVTSTPCWIELHLNGPLQWLDKVLTQMGSPSVRCSSMS

binding [3]: binds
B5: Smad4-pMyr target fusion product, Q13485 1-552 (protein)
chain: MDNMSITNTPTSNDACLSIVHSLMCHRQGGESETFAKRAIESLVKKLKEKKDELDSLITAITTNGAHPSKCVTIQRTLDGRLQVAGRKGFPHVIYARLWRWPDLHKNELKHVKYCQYAFDLKCDSVCVNPYHYERVVSPGIDLSGLTLQSNAPSSMMVKDEYVHDFEGQPSLSTEGHSIQTIQHPPSNRASTETYSTPALLAPSESNATSTANFPNIPVASTSQPASILGGSHSEGLLQIASGPQPGQQQNGFTGQPATYHHNSTTTWTGSRTAPYTPNLPHHQNGHLQHHPPMPPHPGHYWPVHNELAFQPPISNHPAPEYWCSIAYFEMDVQVGETFKVPSSCPIVTVDGYVDPSGGDRFCLGQLSNVHRTEAIERARLHIGKGVQLECKGEGDVWVRCLSDHAVFVQSYYLDREAGRAPGDAVHKIYPSAYIKVFDLRQCHRQMQQQAATAQAAAAAQAAAVAGNIPGPGSVGGIAPAISLSAAAGIGVDDLRRLCILRMSFVKGWGPDYPRQSIKETPCWIEIHLHRALQLLDEVLHTMPIADPQPLD
